Reference: article PMC7532487
These are yes or no findings as the source states them, for the method shown. In cells and extracts the contact can be indirect. Some entries that bind do so weakly or less than the wild type.

Sequences of proteins named here, by UniProt entry; tags and fusion partners are left off.
UniProt Q80V62: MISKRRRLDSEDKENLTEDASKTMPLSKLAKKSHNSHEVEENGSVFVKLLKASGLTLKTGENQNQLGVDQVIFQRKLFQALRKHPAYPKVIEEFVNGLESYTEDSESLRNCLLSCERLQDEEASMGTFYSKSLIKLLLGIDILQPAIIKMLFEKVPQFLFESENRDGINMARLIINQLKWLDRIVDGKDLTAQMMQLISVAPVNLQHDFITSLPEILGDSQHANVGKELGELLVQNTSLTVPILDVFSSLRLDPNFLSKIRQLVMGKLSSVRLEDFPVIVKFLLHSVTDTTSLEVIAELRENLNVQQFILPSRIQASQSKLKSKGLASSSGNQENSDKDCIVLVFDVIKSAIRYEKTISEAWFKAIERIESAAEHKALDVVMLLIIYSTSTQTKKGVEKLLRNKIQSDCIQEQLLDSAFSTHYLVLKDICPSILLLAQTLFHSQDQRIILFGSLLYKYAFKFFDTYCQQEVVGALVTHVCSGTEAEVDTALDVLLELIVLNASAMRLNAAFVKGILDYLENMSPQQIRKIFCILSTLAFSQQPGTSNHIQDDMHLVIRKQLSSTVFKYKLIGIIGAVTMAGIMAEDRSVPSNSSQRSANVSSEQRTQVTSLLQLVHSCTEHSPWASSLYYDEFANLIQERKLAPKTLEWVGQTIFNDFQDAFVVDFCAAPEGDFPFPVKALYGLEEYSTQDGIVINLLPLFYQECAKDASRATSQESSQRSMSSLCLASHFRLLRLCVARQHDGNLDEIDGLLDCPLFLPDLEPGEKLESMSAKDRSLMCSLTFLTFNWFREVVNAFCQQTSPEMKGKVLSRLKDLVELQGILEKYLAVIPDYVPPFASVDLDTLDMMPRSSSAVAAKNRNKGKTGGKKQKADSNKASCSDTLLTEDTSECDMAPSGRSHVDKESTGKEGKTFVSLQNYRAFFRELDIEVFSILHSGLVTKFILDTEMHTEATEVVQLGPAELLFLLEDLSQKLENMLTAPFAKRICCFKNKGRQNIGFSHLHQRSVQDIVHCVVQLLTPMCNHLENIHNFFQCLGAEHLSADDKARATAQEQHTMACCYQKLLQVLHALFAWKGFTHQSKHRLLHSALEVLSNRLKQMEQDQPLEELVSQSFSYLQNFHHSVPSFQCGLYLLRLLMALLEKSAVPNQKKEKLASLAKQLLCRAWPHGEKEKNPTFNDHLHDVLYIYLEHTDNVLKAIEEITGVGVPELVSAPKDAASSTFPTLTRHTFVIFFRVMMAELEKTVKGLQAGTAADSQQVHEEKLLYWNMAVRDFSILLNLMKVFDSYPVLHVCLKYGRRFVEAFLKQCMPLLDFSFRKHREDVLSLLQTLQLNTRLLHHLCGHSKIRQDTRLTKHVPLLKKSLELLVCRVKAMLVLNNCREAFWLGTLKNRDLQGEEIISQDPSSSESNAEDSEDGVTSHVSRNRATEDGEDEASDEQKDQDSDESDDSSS
UniProt P48754: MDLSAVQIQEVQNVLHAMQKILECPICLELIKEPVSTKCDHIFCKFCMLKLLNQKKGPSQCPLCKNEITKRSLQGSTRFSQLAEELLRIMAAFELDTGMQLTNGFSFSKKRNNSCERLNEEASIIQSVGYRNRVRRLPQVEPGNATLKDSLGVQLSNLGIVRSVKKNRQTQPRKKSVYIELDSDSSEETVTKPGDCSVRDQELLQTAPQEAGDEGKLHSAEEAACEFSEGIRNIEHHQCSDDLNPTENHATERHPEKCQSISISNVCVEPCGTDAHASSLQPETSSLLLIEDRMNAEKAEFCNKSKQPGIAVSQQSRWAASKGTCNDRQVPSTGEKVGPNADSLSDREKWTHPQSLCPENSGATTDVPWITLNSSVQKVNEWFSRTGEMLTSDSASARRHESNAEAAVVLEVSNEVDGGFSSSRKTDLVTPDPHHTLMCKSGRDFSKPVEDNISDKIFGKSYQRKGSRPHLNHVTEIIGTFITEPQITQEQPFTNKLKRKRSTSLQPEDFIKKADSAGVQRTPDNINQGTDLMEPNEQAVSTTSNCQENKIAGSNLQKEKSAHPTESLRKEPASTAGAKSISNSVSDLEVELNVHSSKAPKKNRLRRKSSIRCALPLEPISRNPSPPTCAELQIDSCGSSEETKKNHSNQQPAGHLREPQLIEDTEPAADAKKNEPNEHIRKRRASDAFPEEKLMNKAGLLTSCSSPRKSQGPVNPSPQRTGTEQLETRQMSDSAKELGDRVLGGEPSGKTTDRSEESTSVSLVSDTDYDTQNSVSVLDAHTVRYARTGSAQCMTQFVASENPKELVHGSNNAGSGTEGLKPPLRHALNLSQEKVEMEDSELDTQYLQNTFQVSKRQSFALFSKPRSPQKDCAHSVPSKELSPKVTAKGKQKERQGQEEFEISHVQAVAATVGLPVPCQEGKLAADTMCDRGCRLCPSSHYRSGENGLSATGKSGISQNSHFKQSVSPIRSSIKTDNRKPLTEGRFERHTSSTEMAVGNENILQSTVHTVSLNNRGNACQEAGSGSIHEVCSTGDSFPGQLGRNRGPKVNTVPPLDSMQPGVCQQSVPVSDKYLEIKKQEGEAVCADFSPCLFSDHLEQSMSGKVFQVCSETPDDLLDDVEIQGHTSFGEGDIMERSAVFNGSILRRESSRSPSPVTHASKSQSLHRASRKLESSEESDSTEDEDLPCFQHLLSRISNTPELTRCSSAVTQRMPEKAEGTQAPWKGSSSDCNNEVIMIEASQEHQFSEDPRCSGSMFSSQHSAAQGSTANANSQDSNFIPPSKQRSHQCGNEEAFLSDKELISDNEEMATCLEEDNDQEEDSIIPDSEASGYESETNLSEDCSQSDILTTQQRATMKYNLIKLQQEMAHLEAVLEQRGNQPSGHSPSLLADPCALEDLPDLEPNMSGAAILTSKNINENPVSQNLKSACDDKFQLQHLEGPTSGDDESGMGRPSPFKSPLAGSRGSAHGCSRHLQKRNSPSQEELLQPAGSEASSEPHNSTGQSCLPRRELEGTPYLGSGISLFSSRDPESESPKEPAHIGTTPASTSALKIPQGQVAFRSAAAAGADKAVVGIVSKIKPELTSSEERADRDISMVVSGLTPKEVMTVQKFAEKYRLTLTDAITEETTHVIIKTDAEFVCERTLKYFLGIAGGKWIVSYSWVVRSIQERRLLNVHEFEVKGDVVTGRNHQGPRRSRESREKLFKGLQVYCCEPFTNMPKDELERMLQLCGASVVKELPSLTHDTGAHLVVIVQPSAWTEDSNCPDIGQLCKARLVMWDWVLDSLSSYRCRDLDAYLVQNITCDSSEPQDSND

Key:
[1] = molecular target: Fancd2-Flag (Fanconi anemia complementation group D2) (UniProt Q80V62); assay: condition: only control cells (saline) without MMC-induced DNA damage; co-IP; NE4C cells co-transfected with Fancd2-Flag and Brca1-Myc for 48 h, control group (saline, no MMC, no DNA damage); lysis in 0.1% NP40 buffer, Flag-beads 2 h at 4 °C, blot with anti-Myc
[2] = molecular target: Fancd2-Flag (Fanconi anemia complementation group D2) (UniProt Q80V62); assay: co-IP; NE4C cells co-transfected with Fancd2-Flag and Brca1-Myc for 48 h, treated with 0.1 uM MMC or 0.1 uM MMC + 0.5 mM Hcy for 24 h; lysis in 0.1% NP40 buffer, Flag-beads 2 h at 4 °C, blot with anti-Myc

- binding [2]: binds
Substance: Brca1-Myc (Breast Cancer 1) (from UniProt P48754 1-1812)
- binding [1]: no binding
